# According to patent EP4574163A1, “[…] COMPOUNDS AND METHODS” (Université Paris Cité, priority 2023, dated 2025):
# At least one peptide structure holds a part that was inferred or is arguable (an end, a ring closure or a residue). Bridge positions count the residues as written; N and C are the ends. Peptide text beside a SMILES is read from it.
# Columns and labels:
# [1] = test system: obese glucose-resistant mice; test: Oral administration of MccJ25 in HFD mice, basal state and oral glucose tolerance test; assay type: in vivo, C57B6 mice; settings: vs PBS
# [2] = test system: microbiome; test: Shotgun metagenomics and analysis of the microbiome in treated obese mice; assay type: in vivo; settings: obese mice treated with MccJ25 compared to placebo, gut microbiome
# [3] = test system: obese glucose-resistant mice; test: Intraperitoneal administration of MccJ25 in HFD mice, basal state and oral glucose tolerance test; assay type: in vivo, C57B6 mice
# [4] = test system: obese glucose-resistant mice; test: Subcutaneous administration of MccJ25 in HFD mice, oral glucose tolerance test; assay type: in vivo, C57B6 mice; settings: 20 mg/kg daily subcutaneous injections for 5 days, glucose gavage 3g/kg, vs PBS
# [5] = 20 mg/kg daily oral for 5 days, OGTT 3 g/kg
# [6] = 20 mg/kg daily intraperitoneal for 5 days, OGTT 3g/kg, vs placebo
smiles,measurement,setting,value
CC[C@H](C)[C@H](NC(=O)CNC(=O)[C@@H](NC(=O)[C@H](Cc1ccccc1)NC(=O)[C@H](Cc1ccc(O)cc1)NC(=O)[C@@H]1CCC(=O)NCC(=O)NCC(=O)N[C@@H](C)C(=O)NCC(=O)N[C@@H](Cc2c[nH]cn2)C(=O)N[C@@H](C(C)C)C(=O)N2CCC[C@H]2C(=O)N1)C(C)C)C(=O)NCC(=O)N[C@H](C(=O)N1CCC[C@H]1C(=O)N[C@H](C(=O)N[C@@H](CO)C(=O)N[C@@H](Cc1ccccc1)C(=O)N[C@@H](Cc1ccc(O)cc1)C(=O)NCC(=O)O)[C@@H](C)CC)[C@@H](C)O [MccJ25] (GGAGHVPEYFVGIGTPISFYG-OH; lactam N-8),basal (time 0) insulinemia,[1]; 20 mg/kg daily oral administrations for 5 days,significantly decreased
same,AUC of glycemia during OGTT,[1]; [5],decrease
same,glucose tolerance during OGTT,[1]; [5],decrease in glucose tolerance
same,insulin following glucose administration,"[1]; 20 mg/kg daily oral for 5 days, at times 15, 30 and 60 min",significant decrease
same,insulin sensitivity,"[1]; 20 mg/kg daily oral for 5 days, insulin sensitivity index",increased insulin sensitivity
same,Insulin resistance (HOMA-IR),[1]; 20 mg/kg daily oral for 5 days,significantly decreased
same,Firmicutes/Bacteroidota ratio,[2],decrease
same,glycemia during oral glucose tolerance test,[3]; [6],"hyperglycemia was less marked (and significantly lower at times 30, 45 and 60 min compared to placebo)"
same,insulin levels during oral glucose tolerance test,[3]; [6],equal insulin levels
same,basal insulinemia,"[3]; 20 mg/kg daily intraperitoneal for 5 days, basal state (t0), vs controls",significantly reduced basal insulinemia
same,area under the curve (AUC) of glycemia following oral glucose administration,"[3]; 20 mg/kg daily intraperitoneal for 5 days, glucose 3g/kg, vs placebo",significantly lower
same,insulin resistance (HOMA-IR index),"[3]; 20 mg/kg daily intraperitoneal for 5 days, vs controls",significant decrease in insulin resistance
same,insulin sensitivity index ISI,"[3]; 20 mg/kg daily intraperitoneal for 5 days, vs placebo",increased insulin sensitivity index ISI
same,basal glycemia,"[3]; MccJ25 20 mg/kg daily intraperitoneal injection for 5 days, basal state (t0), vs NaCl 0.9 %",tended to decrease basal glycemia
same,area under the curve (AUC) for glycemia,[4],significant decrease
same,glucose tolerance,[4],improved glucose tolerance
